For some assays here: Construct, isoform or probe ends are uncertain for at least one entry. For some assays here: Protein sequences can lack the tags named with them.
Legend:
FnuDI methylase = FnuDI methylase (UniProt P34906); assay: activity in cells; settings: genomic DNA resistant to StuI; GGCC, 5mC type; protein in cells; protein details: pACYC184fnuDIM in E. coli; only the site is given
[1] = system: T1, StuI methylase (M.StuI, stuIM) (Streptomyces tubercidicus); assay: activity in cells; settings: pST2 plasmid resistant to StuI digestion; unmodified PCR product is cleaved; protein in cells; only the site is given
T1 sequence: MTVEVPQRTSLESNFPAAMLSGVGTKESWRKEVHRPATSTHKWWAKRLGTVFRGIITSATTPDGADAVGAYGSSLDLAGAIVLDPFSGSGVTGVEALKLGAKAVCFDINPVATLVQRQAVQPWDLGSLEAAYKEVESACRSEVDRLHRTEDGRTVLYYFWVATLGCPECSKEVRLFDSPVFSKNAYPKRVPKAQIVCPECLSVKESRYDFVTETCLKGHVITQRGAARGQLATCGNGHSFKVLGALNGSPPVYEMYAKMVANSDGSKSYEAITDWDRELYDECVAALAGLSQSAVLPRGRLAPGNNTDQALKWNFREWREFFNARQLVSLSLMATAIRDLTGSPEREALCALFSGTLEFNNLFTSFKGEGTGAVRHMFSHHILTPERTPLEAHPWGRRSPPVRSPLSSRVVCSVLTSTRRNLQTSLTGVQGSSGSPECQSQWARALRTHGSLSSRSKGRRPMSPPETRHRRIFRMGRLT

The chains behind the UniProt entries cited, without tags or fusion partners. Where a name states a change or a piece, a line headed by the entry shows the natural chain unless it says otherwise.
UniProt P34906: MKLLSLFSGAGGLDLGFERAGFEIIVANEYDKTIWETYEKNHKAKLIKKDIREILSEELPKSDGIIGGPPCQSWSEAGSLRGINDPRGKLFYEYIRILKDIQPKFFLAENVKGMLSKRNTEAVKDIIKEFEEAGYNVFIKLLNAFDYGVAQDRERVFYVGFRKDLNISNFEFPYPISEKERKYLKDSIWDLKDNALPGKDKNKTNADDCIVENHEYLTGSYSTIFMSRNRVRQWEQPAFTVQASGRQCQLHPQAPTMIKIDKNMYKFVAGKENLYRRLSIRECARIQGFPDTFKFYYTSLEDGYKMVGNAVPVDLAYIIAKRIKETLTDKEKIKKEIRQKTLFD

Sequence	activity on this sequence (FnuDI methylase)	activity on this sequence [1]
AGGCCT (double strand) [E. coli genomic DNA StuI site]	active	
GCTTTTCTGTGACTGGTGAGGCCTCAACCAAGTCATTCTGAG / CTCAGAATGACTTGGTTGAGGCCTCACCAGTCACAGAAAGC [pUC2iStuI StuI sites in pST2]		active
